Measured values from patent publication EP1283052A1, “Pharmaceutical composition containing caspase-8 and /or caspase-9 useful for overcoming glucocorticoid- and cancer therapy-induced apoptosis of tumours” (Deutsches Krebsforschungszentrum Stiftung des öffentlichen …, priority 2001, dated 2003).
For at least one compound, name, drawing or mass did not settle the structure.

What was measured:
Type in all cases: cell-based, human
[1] = test system: CEM cells; assay: Death receptor-mediated apoptosis in CEM cells; conditions: co-treatment with DEX, data not shown
[2] = test system: apoptosome; assay: Co-immunoprecipitation of apoptosome proteins with Apaf-1 in CEM cells; conditions: presence of DEX, Fig. 5b
[3] = test system: caspase-9; assay: Caspase-9 expression in leukemic T cells; conditions: DEX, data not shown
[4] = test system: caspase-8; assay: Fluorometric caspase-8 activity assay in CEM cells; conditions: cisplatin in the presence of DEX, Fig. 2b
Protocol: • (a) Left: P5 an CEM cells were treated with cisplatin (1-5 µg/ml) in the absence or presence of DEX (1 µM) as indicated. Proteins were extracted and expression of CD95-L, TRAIL or TNF-α was detected by Western blot analysis. The size of the proteins in kDa is indicated. Right: HeLa and P5 were treated with CD95 agonistic antibody αAPO-1 (CD95, 1 µg/ml), recombinant TRAIL protein (TRAIL, 100 ng/ml) or recombinant TNF-α protein (TNF-α, 100 ng/ml) in the absence (white bars) or presence (black bars) of DEX (1 µM). 24 h later the percentage of apoptosis was determined by annexin-staining and FACS-analysis in untreated (CO) and stimulated cells at the time points indicated. • (b) P693 and CEM cells were treated with cisplatin (2 µg/ml) in the absence or presence of DEX as indicated. 24 and 48 h following treatment cells were lysed and caspase-8 activity was determined by a fluorescent caspase-8 assay and spectroscopy. • (c) P5 cells were stable transfected with empty vector (pcDNA3), or pcDNA3 vector encoding dominant negative FADD protein (FADD-DN). Proteins were extracted from both cell lines and expression of wildtype (WT) and FADD-DN (DN) was detected by Western blot. Left: Stable transfected P5 cells were treated with αAPO-1 (1 µg/ml) and 24 h later apoptosis was determined by staining with annexin/propidium iodide and flow-cytometry. […]

With `C[C@@H]1C[C@H]2[C@@H]3CCC4=CC(=O)C=C[C@]4(C)[C@@]3(F)[C@@H](O)C[C@]2(C)[C@@]1(O)C(=O)CO` [DEX, dexamethasone] as the compound, how does the death receptor-mediated apoptosis [1] read?
Its death receptor-mediated apoptosis is “superinduced”.

What about the “amounts of immunoprecipitated apoptosome members” value [2] of the same compound?
The value was “strongly inhibited”.

What about the “expression of caspase-9” value [3] of the same compound?
The value was “nor inhibited”.

And the caspase-8 activity [4]?
Its caspase-8 activity is “superinduced at 48 h”.
